Results taken from article PMC10988300.
Changes are numbered by the printed parent chain. In names and notes the source's numbering stands. Results are given in words; binding and its absence hold for the method and conditions named. Binding seen in cells or lysates may run through a third protein. Some binding calls cover weakened binding; strength is not graded here. For part of these data: Tags and fused reporters may be left off the sequences shown.

Amino acid sequences for entries named in this document (tags omitted).
UniProt P09429: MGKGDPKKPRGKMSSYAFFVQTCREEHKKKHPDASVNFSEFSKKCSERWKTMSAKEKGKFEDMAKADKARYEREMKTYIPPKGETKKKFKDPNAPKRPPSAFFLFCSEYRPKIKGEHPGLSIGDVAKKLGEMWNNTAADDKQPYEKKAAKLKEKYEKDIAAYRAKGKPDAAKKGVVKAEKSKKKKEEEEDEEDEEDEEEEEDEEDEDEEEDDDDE

Assays:
[1] = biological target: Flag-HMGB1 (UniProt P09429); assay: co-IP; HEK-293T cells overexpressing USP15 and HMGB1; Co-IP RIPA buffer, Protein A/G PLUS-Agarose beads, 4 °C overnight, western blot
[2] = biological target: HMGB1, endogenous in PTC cells (human (endogenous in B-CPAP and KTC-1)) (UniProt P09429); assay: co-IP; endogenous proteins of B-CPAP cells and KTC-1 cells; Co-IP RIPA buffer, Protein A/G PLUS-Agarose beads, 4 °C overnight, western blot
[3] = biological target: Flag-HMGB1 (UniProt P09429); assay: co-IP; deubiquitination assay: HEK-293T cells co-transfected with HA-USP15 or HA-USP15 C298A, Flag-HMGB1 and His-Ub for 48 h; immunoprecipitated with an anti-Flag antibody, western blot

B1: HA-USP15 (enzyme, UniProt Q9Y4E8 1-981)
chain: MAEGGAADLDTQRSDIATLLKTSLRKGDTWYLVDSRWFKQWKKYVGFDSWDKYQMGDQNVYPGPIDNSGLLKDGDAQSLKEHLIDELDYILLPTEGWNKLVSWYTLMEGQEPIARKVVEQGMFVKHCKVEVYLTELKLCENGNMNNVVTRRFSKADTIDTIEKEIRKIFSIPDEKETRLWNKYMSNTFEPLNKPDSTIQDAGLYQGQVLVIEQKNEDGTWPRGPSTPKSPGASNFSTLPKISPSSLSNNYNNMNNRNVKNSNYCLPSYTAYKNYDYSEPGRNNEQPGLCGLSNLGNTCFMNSAIQCLSNTPPLTEYFLNDKYQEELNFDNPLGMRGEIAKSYAELIKQMWSGKFSYVTPRAFKTQVGRFAPQFSGYQQQDCQELLAFLLDGLHEDLNRIRKKPYIQLKDADGRPDKVVAEEAWENHLKRNDSIIVDIFHGLFKSTLVCPECAKISVTFDPFCYLTLPLPMKKERTLEVYLVRMDPLTKPMQYKVVVPKIGNILDLCTALSALSGIPADKMIVTDIYNHRFHRIFAMDENLSSIMERDDIYVFEININRTEDTEHVIIPVCLREKFRHSSYTHHTGSSLFGQPFLMAVPRNNTEDKLYNLLLLRMCRYVKISTETEETEGSLHCCKDQNINGNGPNGIHEEGSPSEMETDEPDDESSQDQELPSENENSQSEDSVGGDNDSENGLCTEDTCKGQLTGHKKRLFTFQFNNLGNTDINYIKDDTRHIRFDDRQLRLDERSFLALDWDPDLKKRYFDENAAEDFEKHESVEYKPPKKPFVKLKDCIELFTTKEKLGAEDPWYCPNCKEHQQATKKLDLWSLPPVLVVHLKRFSYSRYMRDKLDTLVDFPINDLDMSEFLINPNAGPCRYNLIAVSNHYGGMGGGHYTAFAKNKDDGKWYYFDDSSVSTASEDQIVSKAAYVLFYQRQDTFSGTGFFPLDRETKGASAATGIPLESDEDSNDNDNDIENENCMHTN
binding [1]: binds

B2: USP15, endogenous in PTC cells (enzyme, UniProt Q9Y4E8 1-981)
chain: B1 chain
binding [2]: binds

B3: HA-USP15 C298A (enzyme, UniProt Q9Y4E8 1-981)
chain: B1 chain with C298A
binding [3]: binds
